Reference: PubChem BioAssay AID1224828 (NIAID, 2016)

Assay: 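Regulators linking TLR4 signalling to p65 nuclear translocation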 (primary screen)
Cell system: mouse RAW264.7 G9 macrophage reporter cells (GFP-p65, Tnf promoter-mCherry)
Reagents: siRNA pool against mouse genes, 100 nM
Duration: 2 days siRNA transfection, then 40 min LPS before fixation
Challenge: LPS (Salmonella minnesota R595) at 10 ng/ml
Measured: 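Imaged p65 nuclear translocation ratio, normalised to the plate median, converted to robust z-scores and averaged across two replicates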
Direction: p65 translocation robust z-score: higher = more nuclear NF-kappaB p65 after LPS than the plate median; nuclear/cytoplasmic p65 ratio: higher = more nuclear NF-kappaB p65
Call rule: 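Active if robust z is above 3.3 (negative regulators) or below -1.56, the Tlr4 control median (positive regulators); activity score 50 or more; control wells not called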
Calls: active = hit (p65 shift raised or lowered); inactive = no clear change
The whole screen tested about 17,000 reagents; this is an unselected part. 762 of all reagents (4.5%) were called active. 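Active calls include both raised and lowered p65 entry, mostly lowered; wells with fewer than 50 cells lack a z-score.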 Raw values vary from plate to plate and are shown uncorrected. Reagent sequences are not shown.

Cdh3: p65 translocation robust z-score = -0.01; nuclear/cytoplasmic p65 ratio, rep 1 = 1.56; nuclear/cytoplasmic p65 ratio, rep 2 = 1.29; low cell count flag = enough cells to score; outcome = inactive
Vmn1r211: nuclear/cytoplasmic p65 ratio, rep 1 = 1.36; nuclear/cytoplasmic p65 ratio, rep 2 = 1.13; low cell count flag = fewer than 50 cells per well; well left out of scoring; outcome = inactive
Atn1: p65 translocation robust z-score = 0.14; nuclear/cytoplasmic p65 ratio, rep 1 = 1.47; nuclear/cytoplasmic p65 ratio, rep 2 = 1.42; low cell count flag = enough cells to score; outcome = inactive
Prok2: p65 translocation robust z-score = 0.81; nuclear/cytoplasmic p65 ratio, rep 1 = 1.47; nuclear/cytoplasmic p65 ratio, rep 2 = 1.32; low cell count flag = enough cells to score; outcome = inactive
Strip2: p65 translocation robust z-score = 0.28; nuclear/cytoplasmic p65 ratio, rep 1 = 1.6; nuclear/cytoplasmic p65 ratio, rep 2 = 1.6; low cell count flag = enough cells to score; outcome = inactive
Bbs9: p65 translocation robust z-score = -0.38; nuclear/cytoplasmic p65 ratio, rep 1 = 1.37; nuclear/cytoplasmic p65 ratio, rep 2 = 1.36; low cell count flag = enough cells to score; outcome = inactive
Onecut2: p65 translocation robust z-score = -1.57; nuclear/cytoplasmic p65 ratio, rep 1 = 1.23; nuclear/cytoplasmic p65 ratio, rep 2 = 1.21; low cell count flag = enough cells to score; outcome = active
Ptpn22: p65 translocation robust z-score = 0.89; nuclear/cytoplasmic p65 ratio, rep 1 = 1.63; nuclear/cytoplasmic p65 ratio, rep 2 = 1.52; low cell count flag = enough cells to score; outcome = inactive
Rfxank: p65 translocation robust z-score = -0.22; nuclear/cytoplasmic p65 ratio, rep 1 = 1.64; nuclear/cytoplasmic p65 ratio, rep 2 = 1.33; low cell count flag = enough cells to score; outcome = inactive
Ift52: p65 translocation robust z-score = -1.44; nuclear/cytoplasmic p65 ratio, rep 1 = 1.23; nuclear/cytoplasmic p65 ratio, rep 2 = 1.33; low cell count flag = enough cells to score; outcome = inactive
Cp: p65 translocation robust z-score = -0.83; nuclear/cytoplasmic p65 ratio, rep 1 = 1.42; nuclear/cytoplasmic p65 ratio, rep 2 = 1.22; low cell count flag = enough cells to score; outcome = inactive
Taf1a: p65 translocation robust z-score = 0.58; nuclear/cytoplasmic p65 ratio, rep 1 = 1.54; nuclear/cytoplasmic p65 ratio, rep 2 = 1.66; low cell count flag = enough cells to score; outcome = inactive
Clcc1: p65 translocation robust z-score = 1.33; nuclear/cytoplasmic p65 ratio, rep 1 = 1.81; nuclear/cytoplasmic p65 ratio, rep 2 = 1.84; low cell count flag = enough cells to score; outcome = inactive
Efna5: p65 translocation robust z-score = -2.46; nuclear/cytoplasmic p65 ratio, rep 1 = 1.31; nuclear/cytoplasmic p65 ratio, rep 2 = 1.05; low cell count flag = enough cells to score; outcome = active

Part of the list above, showing only “low cell count flag”:
Rfxank	enough cells to score
Ift52	enough cells to score
Cp	enough cells to score

The results go on.
Dlec1: p65 translocation robust z-score = 0.42; nuclear/cytoplasmic p65 ratio, rep 1 = 1.67; nuclear/cytoplasmic p65 ratio, rep 2 = 1.57; low cell count flag = enough cells to score; outcome = inactive
Dtnb: p65 translocation robust z-score = -0.83; nuclear/cytoplasmic p65 ratio, rep 1 = 1.38; nuclear/cytoplasmic p65 ratio, rep 2 = 1.26; low cell count flag = enough cells to score; outcome = inactive
Abi1: p65 translocation robust z-score = -0.87; nuclear/cytoplasmic p65 ratio, rep 1 = 1.47; nuclear/cytoplasmic p65 ratio, rep 2 = 1.34; low cell count flag = enough cells to score; outcome = inactive
Apba3: p65 translocation robust z-score = 1.41; nuclear/cytoplasmic p65 ratio, rep 1 = 1.68; nuclear/cytoplasmic p65 ratio, rep 2 = 1.84; low cell count flag = enough cells to score; outcome = inactive
Tsr1: nuclear/cytoplasmic p65 ratio, rep 1 = 1.62; nuclear/cytoplasmic p65 ratio, rep 2 = 1.65; low cell count flag = fewer than 50 cells per well; well left out of scoring; outcome = inactive
5330431K02Rik: nuclear/cytoplasmic p65 ratio, rep 1 = 1.32; nuclear/cytoplasmic p65 ratio, rep 2 = 1.36; low cell count flag = fewer than 50 cells per well; well left out of scoring; outcome = inactive
Shroom2: p65 translocation robust z-score = 1.69; nuclear/cytoplasmic p65 ratio, rep 1 = 1.88; nuclear/cytoplasmic p65 ratio, rep 2 = 1.72; low cell count flag = enough cells to score; outcome = inactive
